Consider 16 molecules from PubChem BioAssay AID493014 (National Center for Advancing Translational Sciences (NCATS), 2011).

The term AC50 denotes the midpoint of the concentration-response curve, whichever way the signal moves.

The structures appear in SMILES notation. The list shows a part of the results. The main result of the screen is listed elsewhere. These columns were measured beside it and carry no call. Compounds called inactive in the main read-out are mostly missing here. The note in brackets gives the kind of curve behind each potency; many fits are weak.

The test in a line: qHTS Assay to Find Inhibitors of Chronic Active B-Cell Receptor Signaling. To be noted: ABC-DLBCL IkBa-CBG/CBR reporter, luminescence ratio (green luciferase fused to IkBa over red control in TMD8 lymphoma cells), 4 h. An outline of the steps:
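TMD8 ABC-DLBCL cells carrying doxycycline-inducible green luciferase fused to IkappaBalpha plus unfused red luciferase were exposed to compounds (up to 46 uM) for 4 hrs at 37C. Activity came from the overlap-corrected green/red luminescence ratio.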
(In general: Quantitative high-throughput screening tests each substance at several concentrations.)

The mark [1] stands for this setting: measured here: IkBa-CBG green luminescence.
The mark [2] stands for this setting: measured here: CBR red luminescence, cell number.

As for `CCCn1c(N)c(N(CCOC)C(=O)CSc2ccccc2)c(=O)[nH]c1=O`, the AC50 under setting [1] was 32.6 µM [falling, partial curve, poor fit].

`COc1ccccc1N1CCN(C(=O)C2CCCN(S(=O)(=O)c3ccc4c(c3)oc(=O)n4C)C2)CC1` (centres undefined): under setting [2], the half-maximal activity concentration (AC50) was 0.282 µM [falling, full curve, poor fit].

In the case of `Cc1ccc2c(c1)N(CC(=O)OC(CC(C)C)C(=O)NC1CCCC1)C(=O)CO2` (centres undefined), the AC50 under setting [2] was 12.6 µM [falling, partial curve, poor fit].

For the molecule `Cc1cccc(N(CC(=O)NCc2ccc(F)cc2)C(=O)c2csnn2)c1C`, the half-maximal activity concentration (AC50) under setting [2] is 4.47 µM [falling, partial curve, poor fit].

`N#C/C(=N\Nc1ccc(Cl)c(Cl)c1)C(=O)C1CC1`: under setting [2], the concentration at half-maximal activity (AC50) is 10 µM [falling, partial curve].

Consider `Cc1cc(C(=O)NC2CCCCC2)c(C)n1-c1ccc(F)cc1`, for which the AC50 under setting [2] was 23.1 µM [falling, single point].

Take `N/C(=N\OC(=O)C12CC3CC(CC(C3)C1)C2)c1ccncc1`: the AC50 under setting [2] was 5.62 µM [rising, single point].

In the case of `CCOC(=O)c1c(C)oc2ccc(OCc3cc(C(=O)OC)oc3C)cc12`, the half-maximal activity concentration (AC50) under setting [2] was 29.1 µM [falling, single point].

In the case of `Cc1ccc(C(=O)N(C)CCOc2ccccc2)cc1S(=O)(=O)N1CCOCC1`, the AC50 by setting is: under setting [2], 7.31 µM [rising, partial curve]; under setting [1], 13 µM [falling, partial curve, poor fit].

For the molecule `Cc1ccc2c(c1)Oc1ccc(NC(=O)CCCl)cc1C(=O)N2`, the concentration at half-maximal activity (AC50) by setting is: under setting [2], 12.6 µM [rising, single point]; under setting [1], 25.1 µM [falling, single point].

Turning to `COC(=O)c1ccc(NC(=O)C2CCCN(S(C)(=O)=O)C2)cc1` (centres undefined), the AC50 under setting [2] is 0.0891 µM [falling, full curve, poor fit].

Consider `CCCc1ccc2oc(C(=O)N3CCC(COC)C3)c(C)c2c1` (centres undefined), for which the half-maximal activity concentration (AC50) under setting [2] was 7.94 µM [rising, partial curve, poor fit].

For the molecule `CSC1=NSC2=NC(=O)/C(=C/c3coc4ccc(O)cc4c3=O)C(=N)N12`, under setting [2], the half-maximal activity concentration (AC50) was 0.326 µM [rising, full curve, poor fit].

With `O=C1NCCCC1C(=O)N/N=C/c1ccccc1` (centres undefined), the concentration at half-maximal activity (AC50) under setting [2] is 18.4 µM [rising, partial curve, poor fit].

With `N/C(=N\OC(=O)c1ccc(Cl)c(Cl)c1)c1cccc(CSc2ccccn2)c1`, under setting [2], the AC50 is 17.8 µM [rising, partial curve, poor fit].

On to `COc1ccc(Oc2nc(-c3cccnc3)nc3ccccc23)cc1`, for which the AC50 under setting [2] was 35.5 µM [rising, single point] and the concentration at half-maximal activity (AC50) under setting [1] is 17.8 µM [falling, partial curve, poor fit].
